IC50 data for 1 molecule are collected here from US12398141B2 (SHANGHAI SYNERGY PHARMACEUTICAL SCIENCES CO., LTD, priority 2019, dated 2025).

Experiment [1] relates to Blast T cell. Briefly: Cell proliferation test of IL-2 stimulated Blast T cell. Conditions: Homo sapiens; IL-2 stimulated Blast T cell proliferation, 72 hours. The experiment is classed as cell-based. How it is done:
Inhibiting test of the compounds of the invention on proliferation of Blast T cell and TF-1 cell (American type culture collection) was carried out by the following method. The tested compounds […], and […] were dissolved in dimethyl sulfoxide from 0.0006 to 10 μM in quadruplicate dilutions. A culture medium included RPMI 1640 culture medium (Grand Turk Island Biotechnology CompanyTM, 11875093), 10% fetal calf serum (Aosibina, 0986180), 55 μM 2-mercaptoethanol and 1% penicillin-streptomycin (Grand Turk Island Biotechnology Company, 1902422). NuncTM Edge 2.0 96-well flat bottom (Cat. No. 167425). Healthy human PBMC cells (drawn blood from healthy human) were isolated, and CD4^+T cells were isolated using the EasySepTM human CD4 T cell isolation kit (Stemcell, 19052). 10 μg/ml polyhydroxyalkanoate was added to stimulate and obtain cells with a density of 2×10^6/mL, which were incubated for 3 days. The cells were washed with phosphate buffer for three times and IL-2 (100 u/ml) was added to stimulate for 1 week. Cells were suspended using the culture medium and seeded at 5×10^4 cell/well density into 96-well plates, and incubated for 1 h with the prepared test compound or DMSO control at various concentrations from 0.0006 to 10 μM diluted by 4-fold volume. […] The luminescence value was read on SpectraMax L (Molecular Device). […]

Experiment [2] concerns TF-1 cell. Description: TF-1 cell proliferation test. The experiment is classed as cell-based. Conditions: Homo sapiens, 72 h. How it is done: Inhibiting test of the compounds of the invention on proliferation of Blast T cell and TF-1 cell (American type culture collection) was carried out by the following method. The tested compounds […], and […] were dissolved in dimethyl sulfoxide from 0.0006 to 10 μM in quadruplicate dilutions. A culture medium included RPMI 1640 culture medium (Grand Turk Island Biotechnology CompanyTM-11875093), 10% fetal calf serum (Aosibina, 0986180) and 1% penicillin-streptomycin (Grand Turk Island Biotechnology Company, 1902422). […] The above test compounds at various concentrations formulated in 1.1 or dimethyl sulfoxide control were added and incubated for 72 h, and then Celltiter Glo® reagent (Promega, G7571) was added. The luminescence value was read on Microplate Reader (Molecular Device). […] The IC50 values of the corresponding compounds were then obtained by fitting by using the XLFit fitting tool in excel.

In general, IC50 refers to the concentration that gives 50% inhibition. Take `C[C@@H]1CCN(C(=O)CC#N)C[C@@H]1N(C)c1ncnc2[nH]ccc12` [Tofacitinib, reference compound]: the IC50 stood at 0.065 µM in experiment [1] and 0.047 µM in experiment [2].
